Source: publication PMC11602438
No constants are given. Whether binding was seen depends on the method and setting. Some entries that bind do so weakly or less than the wild type.

By UniProt entry, the sequences of proteins in these tests, tags left out.
UniProt O94903: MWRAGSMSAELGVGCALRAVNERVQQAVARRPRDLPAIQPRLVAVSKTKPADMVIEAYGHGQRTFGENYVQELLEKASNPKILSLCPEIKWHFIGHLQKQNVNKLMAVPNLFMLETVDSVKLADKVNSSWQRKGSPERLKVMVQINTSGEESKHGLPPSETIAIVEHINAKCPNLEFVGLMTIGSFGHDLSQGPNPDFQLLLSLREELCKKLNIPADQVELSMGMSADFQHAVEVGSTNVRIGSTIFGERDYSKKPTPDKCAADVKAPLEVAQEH

Biological target: human PLP-BP (PROSC), wild type (human) (UniProt O94903)
Experiment: SEC; purified recombinant PROSC (Figure S4); conditions not told for PROSC; both purified

- binding: binds weakly
Substance: human PLP-BP (PROSC), wild type (from UniProt O94903 1-275)
